Test results taken from article doi:10.1101/2025.10.31.685654v2 (biorxiv, 2026).

System: T1, Dm-DopC1
T1 construct: full-length homomeric pentamer expressed from cRNA in Xenopus laevis oocytes; predicted signal peptide residues 1-26
Test: two-electrode voltage clamp, Xenopus oocytes
Assay type: cell-based, Daphnia magna
Settings: antagonist against 50 µM dopamine; ND96 pH 7.5, -60 mV; 4-parameter fit, bottom = 0

IC50: 100 µM
Compound: CC(C)NCC(O)COc1cccc2ccccc12 (stereo not shown) [propranolol]
